Data reported in US7268108B2 (Institut European de Biologie Cellulaire, priority 2002, dated 2007).
[ ]: non-standard residue; d: D form. The star is where a group is joined. d(hPhe) = N[C@H](CCc1ccccc1)C(=O)O; d2Thi = N[C@H](Cc1cccs1)C(=O)O; Tos = Cc1ccc(S(=O)(=O)*)cc1; Nle = CCCC[C@H](N)C(=O)O

Experiment: general procedure: Fmoc solid-phase peptide synthesis; Rink amide-type resin, 0.3-0.6 mmol/g
Details: whole synthesis, HPLC

Row | Substance | purity (crude or final not stated) [%]
1 | BzlSO2-Nle-Ala-His-DpNO2Phe-Lys-Trp-NH2 | 74
2 | BzlSO2-Nle-Ala-His-DPhe-Arg-Trp-NH2 | 96
3 | Ac-[Nle]AH[d(hPhe)]RW-NH2 | 88
4 | Ac-Nle-Ala-His-Dphe-Arg-Trp-NH2 | 81
5 | BzlSO2-Nle-Ala-His-DThi-Lys-Trp-NH2 | 94
6 | BzlSO2-Nle-Ala-His-DPhe-Lys-Trp-NH2 | 84
7 | PyrProp-Nle-Ala-His-DpNO2Phe-Arg-Trp-NH2 | 86
8 | Ac-[Nle]AH[d2Thi]KW-NH2 | 86
9 | Ac-Nle-Ala-His-Dthi-Arg-Trp-NH2 | 86
10 | PyrProp-Nle-Ala-His-DpNO2Phe-Lys-Trp-NH2 | 84
11 | Ac-[Nle]AH[dF]KW-NH2 | 88
12 | Ac-Nle-Ala-His-L2, Nap-Lys-Trp-NH2 | 74
13 | Ac-MeNle-Ala-His-DHomoPhe-Arg-Trp-NH2 | 75
14 | Tos-[Nle]AH[dF]RW-NH2 | 91
